From publication PMC10721154
No constants are given. Whether binding was seen depends on the method and setting. In cells and extracts the contact can be indirect. Binding can be weak; no strength is given. For some assays here: Where a sequence is shown, tags or fusion partners need not be part of it.

Assays:
HA-PTG = molecular target: T1, HA-PTG (UniProt Q9UQK1); experiment: co-IP; HEK293T cells transfected with tagged plasmids, treated with H2O2 (200 uM where printed) for 30 minutes or DDP (20 uM) for 12 hours; anti-Flag M2, anti-Myc or anti-HA beads, or anti-STBD1; Western blot
T1 sequence: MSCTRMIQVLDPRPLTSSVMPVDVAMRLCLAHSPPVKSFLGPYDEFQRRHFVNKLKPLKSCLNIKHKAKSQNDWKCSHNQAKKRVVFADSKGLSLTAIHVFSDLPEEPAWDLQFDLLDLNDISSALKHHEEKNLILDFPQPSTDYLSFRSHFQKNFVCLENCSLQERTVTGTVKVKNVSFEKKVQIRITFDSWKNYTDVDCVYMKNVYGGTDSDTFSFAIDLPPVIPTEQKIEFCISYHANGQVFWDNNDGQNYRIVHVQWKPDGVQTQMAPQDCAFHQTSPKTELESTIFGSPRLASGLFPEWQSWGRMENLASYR

[1] = molecular target: T2, PPP1R3 family member PPP1R3C (PTG) (human (endogenous in MCF-7, MCF-7/DDP)) (UniProt Q9UQK1); experiment: co-IP; endogenous proteins in lysates of tumor cells (MCF-7, MCF-7/DDP, A549/5-Fu), untreated or treated with DDP or 5-Fu for 24 hours, some with si-Ctrl or si-AHR; indicated antibodies (anti-STBD1, anti-HSP90, anti-AHR, anti-p-PYGL, anti-PTG) overnight at 4 C, Protein A/G beads; Western blot
T2 sequence: T1 sequence

Substance | binding (HA-PTG) | binding [1]
Myc-PP1c (enzyme) | binds | 
protein phosphatase 1 catalytic subunit (PP1c) (human (endogenous in MCF-7, MCF-7/DDP)) (enzyme) |  | binds
